Assay results as given in patent publication US6346533B1, “Intraconazole exhibiting an improved solubility, a method of preparing the same and a pharmaceutical composition for oral administration comprising the same” (Dong-A Pharmaceutical Co., Ltd., priority 1997, dated 2002).
For part of these data: At least one read-out could not be matched to a standard name with certainty. For part of these data: At least one structure is not confirmed: it was looked up by name or label, or the drawing left a doubt.

Key:
Format in all cases: physicochemical
[1] = Physical property test by x-ray diffraction
[2] = Determination of particle size (powder distributed in liquid paraffin)
[3] = Dissolution rate test of tablets in artificial gastric juice; details: tablet of Example 4 vs conventional tablet, artificial gastric juice pH 1.2, 37° C., 5-120 minutes

## CCC(C)n1ncn(-c2ccc(N3CCN(c4ccc(OCC5COC(Cn6cncn6)(c6ccc(Cl)cc6Cl)O5)cc4)CC3)cc2)c1=O (stereo not drawn) [The conventional itraconazole without dissolution-induced dr]
[1]
  form by x-ray diffraction pattern (FIG. 2): crystalline form
[2]; particle size 5 ˜ 15 μm
  Accumulated amount (wt %): 24.2 wt %
  Distribution ratio of particle (%): 21.8%
[2]; particle size 15 ˜ 17.5 μm
  Accumulated amount (wt %): 40.6 wt %
  Distribution ratio of particle (%): 18.4%
[2]; particle size 17.5 ˜ 20 μm
  Accumulated amount (wt %): 50.5 wt %
  Distribution ratio of particle (%): 9.9%
[2]; particle size 20 ˜ 30 μm
  Accumulated amount (wt %): 74.4 wt %
  Distribution ratio of particle (%): 23.9%
[2]; particle size 30 ˜ 35 μm
  Accumulated amount (wt %): 82.4 wt %
  Distribution ratio of particle (%): 8.0%
[2]; particle size 35 ˜ 40 μm
  Accumulated amount (wt %): 90.5 wt %
  Distribution ratio of particle (%): 8.1%
[2]; particle size 40 ˜ 52.5 μm
  Accumulated amount (wt %): 100.0 wt %
  Distribution ratio of particle (%): 9.5%
[2]; particle size ˜5 μm
  Accumulated amount (wt %): 2.4 wt %
  Distribution ratio of particle (%): 2.4%

## CCC(C)n1ncn(-c2ccc(N3CCN(c4ccc(OCC5COC(Cn6cncn6)(c6ccc(Cl)cc6Cl)O5)cc4)CC3)cc2)c1=O (stereo not drawn) [Itraconazole of Example 1, itraconazole]
[1]
  form by x-ray diffraction pattern (FIG. 2): crystalline form
[3]
  dissolution rate and solubility (FIG. 1): greatly enhanced
[2]
  average particle diameter: about 3.7 μm
  average particle diameter, times smaller than without dissolution-induced drying: 7 times
[2]; particle size 0.5 ˜ 1.25 μm
  Accumulated amount (wt %): 28.2 wt %
  Distribution ratio of particle (%): 25.8%
[2]; particle size 1.25 ˜ 2.5 μm
  Accumulated amount (wt %): 52.2 wt %
  Distribution ratio of particle (%): 24.0%
[2]; particle size 2.5 ˜ 5 μm
  Accumulated amount (wt %): 86.4 wt %
  Distribution ratio of particle (%): 34.2%
[2]; particle size 5 ˜ 7.5 μm
  Accumulated amount (wt %): 98.6 wt %
  Distribution ratio of particle (%): 12.2%
[2]; particle size 7.5 ˜ 10 μm
  Accumulated amount (wt %): 100.0 wt %
  Distribution ratio of particle (%): 1.4%
[2]; particle size ˜0.5 μm
  Accumulated amount (wt %): 2.4 wt %
  Distribution ratio of particle (%): 2.4%
